In patent US11350648B2, “Compositions and related methods for agriculture” (priority 2017, dated 2022):
At least one structure is not confirmed: it was looked up by name or label, or the drawing left a doubt.

System: Varroa mites
Experiment: Varroa mite contact assay with oxytetracycline solutions
Assay type: in vivo
Conditions: compared to the control; 1, 10, or 50 μg/ml solutions

Question: For `CN(C)[C@@H]1C(O)=C(C(N)=O)C(=O)[C@@]2(O)C(O)=C3C(=O)c4c(O)cccc4[C@@](C)(O)[C@H]3[C@H](O)[C@@H]12` [oxytetracyline, oxytetracycline], which “mobility of Varroa mites” value is on record?
Answer: decreased

Question: What about the “survival rate of Varroa mites” value of the same molecule?
Answer: decreased
